Data as given in PubChem BioAssay AID1259405 (NCATS, 2018).

Aim: 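Silenced genes that increase secreted GFP made by CHO cells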 (primary screen)
Cell system: Chinese hamster CHO-K1 ovary cells with stable secreted eGFP expression
Reagent: single siRNA against mouse genes, 0.8 pmol siRNA per well (2 µl of 400 nM stock)
Timing: 3 days
Read-out: 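Percent of the per-plate non-targeting control median for intracellular GFP per well by laser scanning cytometry and for cell viability by ATP luminescence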
Direction: GFP, % of control: higher = more GFP per well, higher productivity
Call rule: 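Called active when intracellular GFP, relative to negative control, is at or above 120%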
Shown is an unselected part of about 50,000 reagents. About 4,000 of them (8%) were called active. 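Mouse siRNA library applied to hamster cells; one well for each siRNA.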 A number with no mark means an inactive call. Reagents against one gene are numbered here. Further read-outs or replicates are left out here.

GFP, % of control, by gene knocked down and reagent
Grxcr1: #1 70.2; #2 93.9; #3 101
Fah: #1 27.6; #2 73.6; #3 60.1
Aipl1: #1 81; #2 112; #3 64.9
Donson: #1 49; #2 117
Rabep2: #1 33.5; #2 50.4
Slc35e2: #1 45.6; #2 73; #3 71.7
Or8b41: #1 75.2; #2 92.3; #3 74.2
H2ac25: #1 70.2; #2 108; #3 62.5
Mrpl42: #1 63.4; #2 28; #3 65
Pde6h: #1 141 (active); #2 104; #3 28.7
Cyp51: #1 85; #2 122 (active); #3 42.8
Vav1: #1 87.6; #2 89.6; #3 67.6
Abca12: #1 74.5; #2 74.7; #3 72.7
Ccl12: #1 135 (active); #2 74.4
Fmo5: #1 85.4; #2 100; #3 58.4
Phkg1: #1 103
Tm9sf4: #1 61.7; #2 104; #3 85.7
Gpm6b: #1 66.6; #2 64.5; #3 81.2
Cfap91: #1 74.3; #2 79.5; #3 89.2
Syvn1: #1 63.7; #2 38.1; #3 76
Cpa1: #1 176 (active); #2 62.6; #3 70.2
Zfp608: #1 63.9; #2 48.4; #3 105
Krtap13-1: #1 64; #2 90.6; #3 214 (active)
Ugt8a: #1 175 (active); #2 90.8; #3 109
Cavin2: #1 19.2; #2 84; #3 146 (active)
Sptbn4: #1 73.6; #2 28.6; #3 92
Ttc22: #1 74.7; #2 106; #3 85.1
Lmbrd2: #1 150 (active); #2 81.1; #3 88.4
Alg1: #1 152 (active); #2 70.8; #3 139 (active)
Myo3a: #1 108; #2 96.5; #3 75.7

Sorted by “GFP, % of control” (ascending): some entries from above
gene knocked down	reagent no.	GFP, % of control
Rabep2	1	33.5
Donson	1	49
Rabep2	2	50.4
Donson	2	117
